Assay results reported in publication PMC8190280.
These are yes or no findings as the source states them, for the method shown. Some entries that bind do so weakly or less than the wild type.

The chains behind the UniProt entries cited, without tags or fusion partners.
UniProt P19634: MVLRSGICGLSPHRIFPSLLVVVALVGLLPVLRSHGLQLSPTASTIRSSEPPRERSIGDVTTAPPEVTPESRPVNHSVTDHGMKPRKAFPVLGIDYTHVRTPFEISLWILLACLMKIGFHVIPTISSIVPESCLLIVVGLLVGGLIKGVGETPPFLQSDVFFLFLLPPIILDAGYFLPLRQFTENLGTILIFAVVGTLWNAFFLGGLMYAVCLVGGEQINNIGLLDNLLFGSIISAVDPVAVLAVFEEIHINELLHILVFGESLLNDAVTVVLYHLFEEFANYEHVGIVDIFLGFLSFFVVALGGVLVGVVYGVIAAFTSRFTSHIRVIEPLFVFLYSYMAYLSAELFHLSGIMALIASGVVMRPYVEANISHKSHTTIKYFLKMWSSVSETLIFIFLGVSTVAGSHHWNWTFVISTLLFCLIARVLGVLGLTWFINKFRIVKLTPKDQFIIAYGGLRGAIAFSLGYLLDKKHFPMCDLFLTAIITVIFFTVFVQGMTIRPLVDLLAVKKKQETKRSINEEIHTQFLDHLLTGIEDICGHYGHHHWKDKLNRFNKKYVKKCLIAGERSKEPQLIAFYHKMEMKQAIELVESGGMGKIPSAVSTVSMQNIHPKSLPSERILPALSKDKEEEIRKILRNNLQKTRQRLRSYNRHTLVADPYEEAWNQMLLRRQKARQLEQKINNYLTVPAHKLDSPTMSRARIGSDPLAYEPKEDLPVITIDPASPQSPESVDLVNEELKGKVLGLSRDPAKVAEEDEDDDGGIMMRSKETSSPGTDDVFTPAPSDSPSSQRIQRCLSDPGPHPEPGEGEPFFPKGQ

Assays:
[1] = molecular target: human sodium/proton exchanger 1 (NHE1) (human) (UniProt P19634); assay: cryo-EM structure; NHE1-CHP1^Na/7.5: co-expressed and co-purified complex in MSP1D1/POPC nanodiscs, 150 mM NaCl, pH 7.5; 3.3-Å map focused on the NHE1 TMD; CHP1 not resolved; both purified
[2] = molecular target: human sodium/proton exchanger 1 (NHE1) (human) (UniProt P19634); assay: cryo-EM structure; NHE1-CHP1^K/cariporide: co-expressed and co-purified complex in MSP1D1/POPC nanodiscs, 100 mM KCl, pH 7.5, 10 μM cariporide; outward-facing; 3.5-Å map; both purified
[3] = molecular target: human sodium/proton exchanger 1 (NHE1) (human) (UniProt P19634); assay: cryo-EM structure; NHE1-CHP1^Na/6.5: co-expressed and co-purified complex in MSP1D1/POPC nanodiscs, 150 mM NaCl, pH 6.5; inward-facing; 3.4-Å map (TMD), 4.0-Å map of the NHE1 dimer with one CHP1; both purified

binding [1]: binds
binding [2]: binds
binding [3]: binds
B1: human calcineurin B-homologous protein 1 (CHP1) (protein, UniProt Q99653 1-195)
chain: MGSRASTLLRDEELEEIKKETGFSHSQITRLYSRFTSLDKGENGTLSREDFQRIPELAINPLGDRIINAFFPEGEDQVNFRGFMRTLAHFRPIEDNEKSKDVNGPEPLNSRSNKLHFAFRLYDLDKDEKISRDELLQVLRMMVGVNISDEQLGSIADRTIQEADQDGDSAISFTEFVKVLEKVDVEQKMSIRFLH
